The values below come from the supplement of paper PMC10849652.

By UniProt entry, the sequences of proteins in these tests, tags left out. Where a name states a change or a piece, a line headed by the entry shows the natural chain unless it says otherwise.
UniProt Q86UY5: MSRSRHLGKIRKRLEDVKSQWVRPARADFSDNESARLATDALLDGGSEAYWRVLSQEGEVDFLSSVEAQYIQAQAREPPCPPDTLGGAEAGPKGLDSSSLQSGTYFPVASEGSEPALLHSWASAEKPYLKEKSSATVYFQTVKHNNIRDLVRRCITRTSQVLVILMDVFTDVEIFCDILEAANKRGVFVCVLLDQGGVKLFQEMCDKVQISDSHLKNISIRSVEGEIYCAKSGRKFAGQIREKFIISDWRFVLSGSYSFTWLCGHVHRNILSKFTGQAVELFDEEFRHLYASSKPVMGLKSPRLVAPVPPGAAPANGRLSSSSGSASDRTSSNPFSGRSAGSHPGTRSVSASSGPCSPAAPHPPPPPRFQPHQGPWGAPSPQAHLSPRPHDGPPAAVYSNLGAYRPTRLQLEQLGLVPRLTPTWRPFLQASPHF
UniProt Q9Y5Q0: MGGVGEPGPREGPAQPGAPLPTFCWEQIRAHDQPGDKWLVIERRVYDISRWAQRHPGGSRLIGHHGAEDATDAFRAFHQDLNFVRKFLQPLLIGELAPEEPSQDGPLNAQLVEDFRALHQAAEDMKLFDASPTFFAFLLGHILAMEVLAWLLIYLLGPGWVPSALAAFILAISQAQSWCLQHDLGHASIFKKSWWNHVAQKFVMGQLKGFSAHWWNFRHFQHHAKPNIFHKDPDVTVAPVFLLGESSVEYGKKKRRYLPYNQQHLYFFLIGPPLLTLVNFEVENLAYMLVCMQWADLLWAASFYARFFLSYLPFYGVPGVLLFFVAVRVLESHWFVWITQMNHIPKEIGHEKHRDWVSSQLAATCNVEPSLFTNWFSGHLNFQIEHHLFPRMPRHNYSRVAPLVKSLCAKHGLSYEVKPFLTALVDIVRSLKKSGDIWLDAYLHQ
UniProt Q9NQT4, whole entry, looked up: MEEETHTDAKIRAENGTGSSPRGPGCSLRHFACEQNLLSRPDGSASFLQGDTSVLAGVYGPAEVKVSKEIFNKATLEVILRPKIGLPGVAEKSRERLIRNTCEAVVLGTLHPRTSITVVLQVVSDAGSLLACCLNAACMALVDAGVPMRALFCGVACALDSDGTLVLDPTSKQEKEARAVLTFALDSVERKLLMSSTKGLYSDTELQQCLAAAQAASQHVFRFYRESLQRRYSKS
UniProt Q96A26: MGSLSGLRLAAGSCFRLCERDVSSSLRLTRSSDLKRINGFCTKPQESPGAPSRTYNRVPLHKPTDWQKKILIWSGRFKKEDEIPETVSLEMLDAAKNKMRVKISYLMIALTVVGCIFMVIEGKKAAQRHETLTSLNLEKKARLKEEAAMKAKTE
UniProt Q15910, whole entry, looked up: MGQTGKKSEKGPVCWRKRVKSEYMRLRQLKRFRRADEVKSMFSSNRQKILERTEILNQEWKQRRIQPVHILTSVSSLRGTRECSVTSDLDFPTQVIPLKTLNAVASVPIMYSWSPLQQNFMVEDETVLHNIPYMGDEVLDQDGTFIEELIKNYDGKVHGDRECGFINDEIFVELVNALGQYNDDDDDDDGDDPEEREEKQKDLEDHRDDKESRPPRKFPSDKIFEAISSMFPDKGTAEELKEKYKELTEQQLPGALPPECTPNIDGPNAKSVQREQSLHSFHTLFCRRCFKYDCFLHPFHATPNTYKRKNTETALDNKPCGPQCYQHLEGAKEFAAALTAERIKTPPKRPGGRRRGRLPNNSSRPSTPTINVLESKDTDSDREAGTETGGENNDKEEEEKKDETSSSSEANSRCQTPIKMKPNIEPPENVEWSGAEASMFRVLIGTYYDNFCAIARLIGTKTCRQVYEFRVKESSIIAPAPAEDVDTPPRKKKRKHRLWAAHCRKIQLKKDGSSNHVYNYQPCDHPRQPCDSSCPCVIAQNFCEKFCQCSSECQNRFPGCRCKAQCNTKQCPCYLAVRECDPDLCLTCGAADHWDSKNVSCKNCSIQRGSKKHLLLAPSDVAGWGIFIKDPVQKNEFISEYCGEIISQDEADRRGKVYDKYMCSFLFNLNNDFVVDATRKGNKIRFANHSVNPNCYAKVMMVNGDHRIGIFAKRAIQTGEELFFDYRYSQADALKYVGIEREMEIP
UniProt Q96A65: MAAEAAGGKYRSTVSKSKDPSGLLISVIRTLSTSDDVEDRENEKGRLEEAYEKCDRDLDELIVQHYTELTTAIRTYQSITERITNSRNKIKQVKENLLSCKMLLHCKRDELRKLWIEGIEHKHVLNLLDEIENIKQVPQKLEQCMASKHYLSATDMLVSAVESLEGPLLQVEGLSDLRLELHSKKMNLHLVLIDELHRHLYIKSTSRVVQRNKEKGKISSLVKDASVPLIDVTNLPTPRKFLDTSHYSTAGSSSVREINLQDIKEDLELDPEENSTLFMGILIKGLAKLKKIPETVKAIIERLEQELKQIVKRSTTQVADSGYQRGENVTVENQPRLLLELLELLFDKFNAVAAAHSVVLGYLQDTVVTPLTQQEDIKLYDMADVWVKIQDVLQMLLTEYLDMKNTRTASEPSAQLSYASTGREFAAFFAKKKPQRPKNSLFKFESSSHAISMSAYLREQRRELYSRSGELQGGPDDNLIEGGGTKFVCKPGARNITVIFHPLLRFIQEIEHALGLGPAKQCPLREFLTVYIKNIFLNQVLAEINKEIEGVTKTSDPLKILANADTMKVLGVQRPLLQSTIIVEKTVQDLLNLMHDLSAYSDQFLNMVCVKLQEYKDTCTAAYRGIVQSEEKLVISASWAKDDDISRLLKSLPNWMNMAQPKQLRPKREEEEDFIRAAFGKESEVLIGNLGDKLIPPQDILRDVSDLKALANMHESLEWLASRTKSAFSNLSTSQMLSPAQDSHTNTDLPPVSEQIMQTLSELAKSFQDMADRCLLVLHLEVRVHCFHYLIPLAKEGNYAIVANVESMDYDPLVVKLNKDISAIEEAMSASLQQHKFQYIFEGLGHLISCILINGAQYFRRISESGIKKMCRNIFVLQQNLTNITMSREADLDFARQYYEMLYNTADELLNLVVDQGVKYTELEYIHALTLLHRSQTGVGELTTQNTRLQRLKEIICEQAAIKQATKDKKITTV
UniProt P10768: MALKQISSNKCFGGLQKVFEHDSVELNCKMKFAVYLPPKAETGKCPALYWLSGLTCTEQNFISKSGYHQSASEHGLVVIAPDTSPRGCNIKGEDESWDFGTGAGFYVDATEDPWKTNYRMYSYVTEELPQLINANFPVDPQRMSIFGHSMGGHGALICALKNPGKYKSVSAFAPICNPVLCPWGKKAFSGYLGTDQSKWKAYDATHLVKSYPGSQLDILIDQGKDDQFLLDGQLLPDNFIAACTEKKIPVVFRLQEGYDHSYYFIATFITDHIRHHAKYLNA
UniProt Q96E09: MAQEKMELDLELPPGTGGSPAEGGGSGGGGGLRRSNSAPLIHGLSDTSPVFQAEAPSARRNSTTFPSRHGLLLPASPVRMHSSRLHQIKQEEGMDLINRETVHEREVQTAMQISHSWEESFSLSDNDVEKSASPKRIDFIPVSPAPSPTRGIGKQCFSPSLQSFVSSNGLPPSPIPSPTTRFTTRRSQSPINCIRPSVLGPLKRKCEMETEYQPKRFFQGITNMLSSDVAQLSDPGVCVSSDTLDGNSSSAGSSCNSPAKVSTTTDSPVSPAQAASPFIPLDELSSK
UniProt Q96DZ1: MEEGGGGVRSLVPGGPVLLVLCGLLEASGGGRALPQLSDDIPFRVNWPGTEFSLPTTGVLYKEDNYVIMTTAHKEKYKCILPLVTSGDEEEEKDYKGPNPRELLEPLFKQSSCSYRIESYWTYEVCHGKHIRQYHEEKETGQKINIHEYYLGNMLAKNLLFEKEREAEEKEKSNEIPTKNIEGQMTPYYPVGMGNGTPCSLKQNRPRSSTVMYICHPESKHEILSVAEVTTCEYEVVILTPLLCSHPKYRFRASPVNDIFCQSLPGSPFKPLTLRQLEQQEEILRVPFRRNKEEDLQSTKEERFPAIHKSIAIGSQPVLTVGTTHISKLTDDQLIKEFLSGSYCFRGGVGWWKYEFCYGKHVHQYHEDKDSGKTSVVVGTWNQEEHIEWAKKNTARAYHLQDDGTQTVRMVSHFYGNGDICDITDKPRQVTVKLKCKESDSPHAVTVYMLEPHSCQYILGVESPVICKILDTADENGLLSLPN
UniProt Q6P587: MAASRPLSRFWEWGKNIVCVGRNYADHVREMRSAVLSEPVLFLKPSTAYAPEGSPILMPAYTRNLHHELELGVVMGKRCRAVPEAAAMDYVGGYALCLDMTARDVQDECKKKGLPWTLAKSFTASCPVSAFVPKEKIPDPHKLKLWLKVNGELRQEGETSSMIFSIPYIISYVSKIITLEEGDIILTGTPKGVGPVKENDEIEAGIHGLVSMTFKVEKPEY
UniProt Q9NUQ9: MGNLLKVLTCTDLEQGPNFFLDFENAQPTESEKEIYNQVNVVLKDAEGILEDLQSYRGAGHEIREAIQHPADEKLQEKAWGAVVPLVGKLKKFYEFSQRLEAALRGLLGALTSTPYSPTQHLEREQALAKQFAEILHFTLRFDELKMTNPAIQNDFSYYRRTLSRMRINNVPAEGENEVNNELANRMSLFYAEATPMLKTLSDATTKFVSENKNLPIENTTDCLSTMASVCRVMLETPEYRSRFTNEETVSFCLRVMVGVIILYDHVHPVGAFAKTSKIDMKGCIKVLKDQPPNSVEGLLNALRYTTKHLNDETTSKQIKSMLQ
UniProt Q01469, whole entry, looked up: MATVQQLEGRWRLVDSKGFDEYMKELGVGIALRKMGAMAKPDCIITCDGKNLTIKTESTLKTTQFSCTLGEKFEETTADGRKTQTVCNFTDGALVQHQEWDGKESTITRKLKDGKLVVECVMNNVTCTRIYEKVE
UniProt Q9H4H8: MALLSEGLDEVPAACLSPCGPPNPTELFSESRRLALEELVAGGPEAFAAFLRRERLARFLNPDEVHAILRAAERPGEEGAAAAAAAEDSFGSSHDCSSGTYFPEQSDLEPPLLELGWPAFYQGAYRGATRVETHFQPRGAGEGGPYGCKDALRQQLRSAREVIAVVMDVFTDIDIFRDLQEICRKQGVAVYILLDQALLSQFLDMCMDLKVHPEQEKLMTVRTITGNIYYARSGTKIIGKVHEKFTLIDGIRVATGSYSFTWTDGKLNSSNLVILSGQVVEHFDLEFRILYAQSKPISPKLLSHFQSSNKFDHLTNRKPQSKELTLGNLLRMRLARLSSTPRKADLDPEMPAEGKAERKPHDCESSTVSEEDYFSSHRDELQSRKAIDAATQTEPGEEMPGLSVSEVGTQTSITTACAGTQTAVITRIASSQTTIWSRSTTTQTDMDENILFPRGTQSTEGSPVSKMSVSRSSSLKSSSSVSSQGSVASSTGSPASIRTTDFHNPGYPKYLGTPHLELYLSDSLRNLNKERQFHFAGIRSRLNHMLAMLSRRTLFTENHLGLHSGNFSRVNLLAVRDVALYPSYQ
UniProt Q14320: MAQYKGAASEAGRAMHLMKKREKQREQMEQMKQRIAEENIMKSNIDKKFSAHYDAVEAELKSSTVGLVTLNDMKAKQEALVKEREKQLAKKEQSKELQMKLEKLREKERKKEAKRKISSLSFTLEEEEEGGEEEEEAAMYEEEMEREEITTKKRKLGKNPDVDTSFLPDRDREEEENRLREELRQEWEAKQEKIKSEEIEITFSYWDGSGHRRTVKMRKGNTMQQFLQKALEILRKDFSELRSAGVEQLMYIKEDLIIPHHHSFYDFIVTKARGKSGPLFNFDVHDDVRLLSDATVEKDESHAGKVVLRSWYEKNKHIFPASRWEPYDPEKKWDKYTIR
UniProt Q96KR6: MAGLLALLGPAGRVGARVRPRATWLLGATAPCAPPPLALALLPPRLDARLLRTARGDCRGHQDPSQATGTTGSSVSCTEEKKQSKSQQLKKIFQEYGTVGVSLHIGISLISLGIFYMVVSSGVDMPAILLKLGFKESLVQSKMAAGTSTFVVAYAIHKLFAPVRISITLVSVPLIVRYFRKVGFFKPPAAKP
UniProt Q9UPT5: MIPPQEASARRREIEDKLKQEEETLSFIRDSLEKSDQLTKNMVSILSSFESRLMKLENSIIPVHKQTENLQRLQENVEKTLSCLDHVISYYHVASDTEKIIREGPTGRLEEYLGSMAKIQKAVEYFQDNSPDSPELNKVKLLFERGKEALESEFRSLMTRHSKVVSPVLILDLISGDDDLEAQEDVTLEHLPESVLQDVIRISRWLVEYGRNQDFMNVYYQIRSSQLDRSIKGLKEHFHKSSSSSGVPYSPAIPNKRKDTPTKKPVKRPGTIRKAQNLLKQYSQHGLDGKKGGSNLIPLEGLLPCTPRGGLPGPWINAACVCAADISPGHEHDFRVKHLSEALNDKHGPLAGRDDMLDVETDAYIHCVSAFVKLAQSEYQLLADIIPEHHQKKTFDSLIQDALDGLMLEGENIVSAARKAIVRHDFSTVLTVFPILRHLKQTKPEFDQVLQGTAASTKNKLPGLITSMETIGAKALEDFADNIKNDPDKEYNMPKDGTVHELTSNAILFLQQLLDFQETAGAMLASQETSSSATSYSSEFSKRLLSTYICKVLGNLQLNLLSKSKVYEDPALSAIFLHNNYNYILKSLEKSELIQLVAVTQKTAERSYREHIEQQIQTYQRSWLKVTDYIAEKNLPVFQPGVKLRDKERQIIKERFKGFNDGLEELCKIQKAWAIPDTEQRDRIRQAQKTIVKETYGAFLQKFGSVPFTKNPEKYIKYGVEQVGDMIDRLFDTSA

This is one part of the list.

Compound in this assay: C[C@H](C1=CC=C(C=C1)C(=O)NC2=C3C=CNC3=NC=C2)N
The experiment in a line: log2 fold change, soluble protein after heating vs DMSO (PISA); higher = thermal stabilisation; K562 lysate, 10 uM; active = over 0.2 and 3.5 SD of the protein, either way, in both replicates (recomputed). The method, boiled down: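 K562 pellets were dounce-homogenised in PBS pH 7.4 containing 1 mM MgCl2, and the crude extract, at 1 mg/mL protein, was exposed to 10 μM compound for 30 min. Aliquots were heated for 3 min across 48°C-58°C, pooled, brought to 0.5% NP-40 at 4°C and spun at 21,000xg for 90 min, with the supernatant taken as soluble protein. TMTpro 16plex LC-MS/MS with equalised channel sums quantified that protein. Values are log-two fold changes in thermal stability relative to solvent controls, taken from duplicates.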
In the case of ETNK1 (UniProt Q9HBU6), the log2 fold change was inactive: -0.038. With FAM83A (UniProt Q86UY5), the log2 fold change is inactive: -0.142. To FADS3 (UniProt Q9Y5Q0) belongs inactive: -0.322; to EXOC2 (UniProt Q96KP1), inactive: 0.017; to FAM120A isoform 6 (UniProt Q9NZB2), inactive: 0. In the case of EXOSC5 (UniProt Q9NQT4) it was inactive: -0.004; in that of FAM162A (UniProt Q96A26), inactive: 0.031. For the target EZH2 isoform 2 (UniProt Q15910), the log2 fold change was inactive: 0.113. To EXOC4 (UniProt Q96A65) belongs inactive: 0.011; to EXOSC4 (UniProt Q9NPD3), inactive: -0.003. To ESS2 (UniProt Q96DF8) belongs inactive: -0.04; to EXOC6 (UniProt Q8TAG9), inactive: -0.013. Take FADS1, A0A0A0MR51: the log2 fold change was inactive: -0.024. Turning to F5 (UniProt P12259), the log2 fold change is inactive: -0.061.

As for FAM207A (UniProt Q9NSI2), the log2 fold change was inactive: 0.03.

As to ESD (UniProt P10768), the log2 fold change is inactive: -0.012.

Take FAM122A (UniProt Q96E09): the log2 fold change was inactive: -0.013. In the case of FAM114A2 (UniProt Q9NRY5) it was inactive: -0.023; in that of FAM136A (UniProt Q96C01), inactive: 0.027; in that of EXOC3 (UniProt O60645), inactive: 0.016. In the case of EYA3 (UniProt Q99504), the log2 fold change is inactive: -0.015. In the case of ERVK3-1, A0A0U1RQV1 it was inactive: -0.23; in that of ERLEC1 (UniProt Q96DZ1), inactive: -0.063. On to ESYT1 isoform 2 (UniProt Q9BSJ8), for which the log2 fold change is inactive: -0.042. As to FAHD1 (UniProt Q6P587), the log2 fold change was inactive: -0.297.

In the case of FAM49B (UniProt Q9NUQ9), the log2 fold change is inactive: -0.023. To FABP5 (UniProt Q01469) belongs inactive: 0.046; to FAM83D (UniProt Q9H4H8), inactive: -0.021. In the case of EXTL2 (UniProt Q9UBQ6), the log2 fold change is inactive: -0.138. To FAM118A (UniProt Q9NWS6) belongs inactive: -0.09; to ESYT2 (UniProt H7BXI1), inactive: 0.089; to ETFB (UniProt P38117), inactive: -0.103. For ERP29 (UniProt P30040), the log2 fold change is inactive: 0.17. To FAM50A (UniProt Q14320) belongs inactive: 0.128; to ERICH1 (UniProt Q86X53), inactive: 0.12; to FAHD2A (UniProt Q96GK7), inactive: -0.044. In the case of FAM210B (UniProt Q96KR6), the log2 fold change is inactive: -0.136. In the case of ETF1 (UniProt P62495) it was inactive: -0.002. In the case of EXOSC6 (UniProt Q5RKV6) it was inactive: -0.014. In the case of EXOC7 (UniProt Q9UPT5) it was inactive: -0.079.
